According to publication PMC12431657, “Discovery and mechanistic insights of dibenzoylmethane as a broad spectrum inhibitor of coronavirus” (PLOS Pathogens, 2025):
Where two headings read alike, the source gives them in different places. The whole screen tested about 3,300 compounds, of which about 60 (2%) showed an effect of 50% or more. This is one part of the list. Peptide text beside a SMILES is read from it.

Tested on: HCoV-OC43
Design: species or system RD; HTS, protection from HCoV-OC43 induced cell death, luminescent cell viability (CellCounting-Lite 2.0), inhibition rate
Details: 24 h post infection, 1 h compound pre-incubation, 10 µM, inhibitor

SMILES | OC43 Inhibition rate | OC43 Inhibition rate (OC43 Inhibition rate, 24 h)
CC(=O)OCC(=O)[C@@]1(O)CC[C@H]2[C@@H]3CCC4=CC(=O)CC[C@]4(C)[C@H]3C(=O)C[C@@]21C [Cortisone acetate] | 3.9% | 
CC1(C)CC[C@]2(C(=O)O[C@@H]3O[C@H](CO)[C@@H](O)[C@H](O)[C@H]3O)[C@H](O)C[C@]3(C)C(=CC[C@@H]4[C@@]5(C)CC[C@H](O[C@@H]6O[C@H](CO)[C@@H](O)[C@H](O)[C@H]6O)C(C)(C)[C@@H]5CC[C@]43C)[C@@H]2C1 [Eclalbasaponin I] | -0.2% | 
C[C@@H]1O[C@@H](O[C@H]2C(=O)c3c(O)cc(O)cc3O[C@H]2c2ccc(O)c(O)c2)[C@H](O)[C@H](O)[C@H]1O [Neoisoastilbin] | -1.4% | 
CC1(C)O[C@H]2CC(=O)OC[C@@]23[C@H]1CC(=O)[C@@]1(C)C2=CC(=O)O[C@@H](c4ccoc4)[C@]2(C)CC[C@@H]13 [Deoxylimonin] | 3% | 
COc1cc2c(cc1OC)-c1cc3ccc(OC)c(O)c3c[n+]1CC2 [Palmaturbine] |  | 3.8%
O=C1CCN([C@@H]2O[C@H](CO)[C@@H](O)[C@H]2O)C(=O)N1 [5,6-Dihydrouridine] | -2.9% | 
OC[C@@H](O)[C@@H](O)[C@H](O)[C@@H](O)CO [D-Sorbitol] | 0% | 
O=C(O)c1ccc[nH]1 [Pyrrole-2-carboxylic acid] | 4.1% | 
COc1cc(CCO)ccc1O [Homovanillyl alcohol] | -1% | 
CC1(C)[C@@H](O[C@@H]2OC[C@H](O[C@@H]3O[C@H](CO)[C@@H](O)[C@H](O)[C@H]3O[C@@H]3OC[C@@H](O)[C@H](O)[C@H]3O)[C@H](O)[C@H]2O[C@@H]2O[C@H](CO)[C@@H](O)[C@H](O)[C@H]2O)CC[C@]2(C)[C@H]3CC[C@]45OC[C@@]6(CC[C@](C)(C=O)C[C@H]64)[C@H](O)C[C@@]5(C)[C@]3(C)CC[C@@H]12 [Ardisiacrispin A] | -1.4% | 
NC(=O)c1ncn([C@@H]2O[C@H](CO)[C@@H](O)[C@H]2O)c1N [AICAR (phosphate)] | 3.6% | 
CC1(C)CC[C@]2(C(=O)O)CC[C@]3(C)C(=CC[C@@H]4[C@@]5(C)CC[C@H](O[C@@H]6O[C@H](C(=O)O)[C@@H](O[C@@H]7O[C@@H](CO)[C@H](O)[C@H]7O)[C@H](O)[C@H]6O)C(C)(C)[C@@H]5CC[C@]43C)[C@@H]2C1 [Tarasaponin VI] | -2.6% | 
CC[C@H](C)[C@H](N)C(=O)N[C@@H](C)C(=O)N[C@@H](CCCN=C(N)N)C(=O)N[C@@H](CCCN=C(N)N)C(=O)N[C@@H](Cc1cnc[nH]1)C(=O)N1CCC[C@H]1C(=O)N[C@@H](Cc1ccc(O)cc1)C(=O)N[C@@H](Cc1ccccc1)C(=O)N[C@@H](CC(C)C)C(=O)O [Kinetensin] (H-IARRHPYFL-OH) | -0.6% | 
C[C@@H]1C(=O)O[C@H]2C[C@@]34[C@H]5C[C@@H](C(C)(C)C)[C@]36[C@@H](OC(=O)[C@@H]6O)O[C@@]4(C(=O)O5)[C@]21O [Ginkgolide A] | 0% | 
CC1(C)CC[C@]2(C)CC[C@]3(C)C(=CC[C@@H]4[C@@]5(C)CC[C@@H](O)[C@](C)(C(=O)O)[C@@H]5CC[C@]43C)[C@@H]2C1 [alpha-Boswellic acid] | 6% | 
CCCCCC1=C(C)CCC1=O [Dihydrojasmone] | 0.1% | 
Nc1nc2ncc([C@H](O)[C@H](O)CO)nc2c(=O)[nH]1 [Neopterin] | 0.5% | 
CNCC(O)c1ccc(O)cc1 (stereo not drawn) [p-Synephrine] |  | 2.7%
O=C(O)c1cc(O)c2c(c1)[C@H]([C@H]1c3cc(C(=O)O)cc(O)c3C(=O)c3c(O[C@@H]4O[C@H](CO)[C@@H](O)[C@H](O)[C@H]4O)cccc31)c1cccc(O[C@@H]3O[C@H](CO)[C@@H](O)[C@H](O)[C@H]3O)c1C2=O [Sennoside A] | 0.5% | 
NC(=O)c1ccc[n+]([C@@H]2O[C@H](COP(=O)([O-])O)[C@@H](O)[C@H]2O)c1 [β-Nicotinamide mononucleotide] | -0.9% | 
Cc1ncc(COP(=O)(O)O)c(C=O)c1O [Pyridoxal phosphate] |  | -0.7%
CCCCCC/C=C\CCCCCCCC(=O)OC [Methyl palmitoleate] | -0.6% | 
CC(C)(N)C(=O)O [NSC 16590] | 0.1% | 
COc1c(O[C@@H]2O[C@H](C(=O)O)[C@@H](O)[C@H](O)[C@H]2O)cc(O)c2c(=O)cc(-c3ccccc3)oc12 [Wogonoside] | 0.2% | 
COc1cc2oc(-c3ccccc3)cc(=O)c2c(OC)c1OC [5,6,7-Trimethoxyflavone] | 0.1% | 
C[C@@H]1C[C@H]2O[C@@]3(O[C@@H]2C(C)(C)O)[C@H](O)[C@@]2(C)[C@@H]4CC[C@H]5C(C)(C)[C@@H](O)CC[C@@]56C[C@@]46CC[C@]2(C)[C@@H]13 [Cimigenol] | 8.4% | 
C[C@H](CC[C@@]1(O)O[C@H]2C[C@H]3[C@@H]4CC=C5C[C@@H](O[C@@H]6O[C@H](CO)[C@@H](O)[C@H](O[C@@H]7O[C@H](CO)[C@@H](O)[C@H](O)[C@H]7O)[C@H]6O[C@@H]6O[C@@H](C)[C@H](O)[C@@H](O)[C@H]6O)CC[C@]5(C)[C@H]4CC[C@]3(C)[C@H]2[C@@H]1C)CO[C@@H]1O[C@H](CO)[C@@H](O)[C@H](O)[C@H]1O [Protogracillin] | 0.4% | 
O=C1c2cc(CO)cc(O)c2C(=O)c2c(O[C@@H]3O[C@H](CO)[C@@H](O)[C@H](O)[C@H]3O)cccc21 [Aloe-emodin-8-O-β-D-glucopyranoside] | 3.4% | 
C=C(C)[C@H](CC=C(C)C)Cc1c(O)cc(OC)c2c1O[C@H](c1ccc(O)cc1OC)CC2=O [(2S)-2'-Methoxykurarinone] | 98.5% | 
C=CCC1=C[C@]2(OC)C(=O)C(OC)(OC)[C@H]1[C@@H]1C(OC)(OC)C(=O)C(OC)=C[C@@]12CC=C [Asatone] | 1.4% | 

3 structures already listed, arranged by molecular weight, smallest number first.
SMILES | OC43 Inhibition rate | OC43 Inhibition rate (OC43 Inhibition rate, 24 h)
COc1cc(CCO)ccc1O [Homovanillyl alcohol] | -1% | 
Nc1nc2ncc([C@H](O)[C@H](O)CO)nc2c(=O)[nH]1 [Neopterin] | 0.5% | 
CC1(C)CC[C@]2(C(=O)O[C@@H]3O[C@H](CO)[C@@H](O)[C@H](O)[C@H]3O)[C@H](O)C[C@]3(C)C(=CC[C@@H]4[C@@]5(C)CC[C@H](O[C@@H]6O[C@H](CO)[C@@H](O)[C@H](O)[C@H]6O)C(C)(C)[C@@H]5CC[C@]43C)[C@@H]2C1 [Eclalbasaponin I] | -0.2% | 
